# Measured values reported in PubChem BioAssay (EPA / NIEHS).
# Protein sequences, listed by entry. Tags and fused reporters are not part of them. Lines headed by an entry give the natural chain unless they say otherwise; changes in a name come on top.
# UniProt P04150: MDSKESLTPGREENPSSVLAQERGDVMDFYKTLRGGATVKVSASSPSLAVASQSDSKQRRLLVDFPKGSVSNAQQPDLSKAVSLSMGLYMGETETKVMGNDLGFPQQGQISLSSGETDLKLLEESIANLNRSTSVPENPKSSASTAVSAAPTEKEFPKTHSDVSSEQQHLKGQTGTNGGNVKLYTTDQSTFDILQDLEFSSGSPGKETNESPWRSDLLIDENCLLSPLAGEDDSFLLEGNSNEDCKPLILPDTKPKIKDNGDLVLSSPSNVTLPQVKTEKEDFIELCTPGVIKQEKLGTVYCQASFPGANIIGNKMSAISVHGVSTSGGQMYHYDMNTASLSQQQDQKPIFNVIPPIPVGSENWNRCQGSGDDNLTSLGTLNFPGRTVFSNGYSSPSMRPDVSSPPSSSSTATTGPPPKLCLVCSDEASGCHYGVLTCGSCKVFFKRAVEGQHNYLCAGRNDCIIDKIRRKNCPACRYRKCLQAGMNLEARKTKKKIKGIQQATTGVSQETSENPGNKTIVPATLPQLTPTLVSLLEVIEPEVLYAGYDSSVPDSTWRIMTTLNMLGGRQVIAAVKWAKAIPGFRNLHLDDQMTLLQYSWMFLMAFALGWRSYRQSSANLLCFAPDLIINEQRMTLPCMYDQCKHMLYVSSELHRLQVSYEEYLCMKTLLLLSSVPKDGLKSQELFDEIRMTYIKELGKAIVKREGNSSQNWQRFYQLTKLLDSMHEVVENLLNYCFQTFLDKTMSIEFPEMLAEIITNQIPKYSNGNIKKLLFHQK
# UniProt P33261, whole entry, looked up: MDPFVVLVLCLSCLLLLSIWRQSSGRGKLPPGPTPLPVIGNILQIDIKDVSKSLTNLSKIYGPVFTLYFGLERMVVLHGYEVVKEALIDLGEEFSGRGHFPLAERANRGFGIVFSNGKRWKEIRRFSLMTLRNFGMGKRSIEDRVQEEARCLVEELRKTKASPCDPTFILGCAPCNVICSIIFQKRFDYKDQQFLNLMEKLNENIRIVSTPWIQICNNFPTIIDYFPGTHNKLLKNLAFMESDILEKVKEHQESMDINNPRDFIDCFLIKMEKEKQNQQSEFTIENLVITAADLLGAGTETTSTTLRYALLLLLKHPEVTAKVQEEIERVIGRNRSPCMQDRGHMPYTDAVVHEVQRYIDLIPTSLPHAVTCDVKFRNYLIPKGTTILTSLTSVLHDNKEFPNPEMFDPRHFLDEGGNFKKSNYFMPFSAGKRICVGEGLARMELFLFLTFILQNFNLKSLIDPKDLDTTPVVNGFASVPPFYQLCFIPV
# UniProt P04406: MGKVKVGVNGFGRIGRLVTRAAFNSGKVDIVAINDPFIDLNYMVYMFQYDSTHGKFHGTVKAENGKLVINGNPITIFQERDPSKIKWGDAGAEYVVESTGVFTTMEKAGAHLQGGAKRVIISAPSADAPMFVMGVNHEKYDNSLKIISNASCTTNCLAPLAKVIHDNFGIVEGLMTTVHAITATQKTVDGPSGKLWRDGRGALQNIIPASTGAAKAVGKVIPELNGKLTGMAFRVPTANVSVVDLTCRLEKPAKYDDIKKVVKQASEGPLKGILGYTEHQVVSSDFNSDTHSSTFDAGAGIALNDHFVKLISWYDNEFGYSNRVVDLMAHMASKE
# UniProt Q96RI1: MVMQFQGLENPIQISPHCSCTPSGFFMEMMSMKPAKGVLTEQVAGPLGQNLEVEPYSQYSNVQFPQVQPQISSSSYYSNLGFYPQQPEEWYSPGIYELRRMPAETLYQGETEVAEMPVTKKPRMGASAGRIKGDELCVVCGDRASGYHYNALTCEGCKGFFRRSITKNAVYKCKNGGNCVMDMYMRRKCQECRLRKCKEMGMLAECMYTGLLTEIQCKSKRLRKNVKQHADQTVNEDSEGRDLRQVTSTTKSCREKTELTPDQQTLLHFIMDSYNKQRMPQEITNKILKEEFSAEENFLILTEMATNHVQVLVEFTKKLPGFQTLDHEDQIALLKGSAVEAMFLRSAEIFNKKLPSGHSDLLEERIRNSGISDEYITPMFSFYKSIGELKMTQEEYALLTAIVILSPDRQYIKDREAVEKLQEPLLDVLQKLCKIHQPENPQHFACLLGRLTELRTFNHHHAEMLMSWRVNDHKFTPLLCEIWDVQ
# UniProt O75469: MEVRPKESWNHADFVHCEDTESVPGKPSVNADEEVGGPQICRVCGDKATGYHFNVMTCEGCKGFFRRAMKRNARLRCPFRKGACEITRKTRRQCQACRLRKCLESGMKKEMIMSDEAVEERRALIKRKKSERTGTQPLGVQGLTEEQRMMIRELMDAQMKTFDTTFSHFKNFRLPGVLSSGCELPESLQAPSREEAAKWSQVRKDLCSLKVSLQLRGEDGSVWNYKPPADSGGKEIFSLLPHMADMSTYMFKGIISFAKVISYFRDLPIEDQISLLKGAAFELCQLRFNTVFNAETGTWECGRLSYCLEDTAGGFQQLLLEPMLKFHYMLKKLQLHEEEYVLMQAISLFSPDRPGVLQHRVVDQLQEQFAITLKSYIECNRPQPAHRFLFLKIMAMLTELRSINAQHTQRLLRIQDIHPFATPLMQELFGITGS
# UniProt Q01717: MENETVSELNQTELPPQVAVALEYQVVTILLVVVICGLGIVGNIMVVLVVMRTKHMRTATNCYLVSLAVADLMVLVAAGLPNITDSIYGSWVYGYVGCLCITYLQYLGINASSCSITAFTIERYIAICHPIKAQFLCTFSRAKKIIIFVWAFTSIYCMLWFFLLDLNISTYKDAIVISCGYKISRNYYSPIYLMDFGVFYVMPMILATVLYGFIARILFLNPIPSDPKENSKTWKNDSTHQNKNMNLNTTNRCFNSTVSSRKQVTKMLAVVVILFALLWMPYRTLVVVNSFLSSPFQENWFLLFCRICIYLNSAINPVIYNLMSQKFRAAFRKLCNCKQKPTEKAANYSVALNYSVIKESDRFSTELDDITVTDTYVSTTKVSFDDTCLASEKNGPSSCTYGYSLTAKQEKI
# UniProt P11712, whole entry, looked up: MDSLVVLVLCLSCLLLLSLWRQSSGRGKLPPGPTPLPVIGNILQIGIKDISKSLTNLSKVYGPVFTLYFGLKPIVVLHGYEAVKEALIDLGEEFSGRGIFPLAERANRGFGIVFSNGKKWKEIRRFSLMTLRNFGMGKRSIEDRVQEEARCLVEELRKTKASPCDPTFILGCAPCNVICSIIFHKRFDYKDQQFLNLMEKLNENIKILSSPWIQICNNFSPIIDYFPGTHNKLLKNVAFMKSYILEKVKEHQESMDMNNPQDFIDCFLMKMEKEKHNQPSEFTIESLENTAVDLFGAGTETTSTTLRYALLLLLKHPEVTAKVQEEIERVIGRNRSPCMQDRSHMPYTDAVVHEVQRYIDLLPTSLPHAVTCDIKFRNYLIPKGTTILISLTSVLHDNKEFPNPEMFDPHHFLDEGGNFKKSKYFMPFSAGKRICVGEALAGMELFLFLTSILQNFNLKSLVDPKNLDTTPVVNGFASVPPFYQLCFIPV
# UniProt Q9UNQ0: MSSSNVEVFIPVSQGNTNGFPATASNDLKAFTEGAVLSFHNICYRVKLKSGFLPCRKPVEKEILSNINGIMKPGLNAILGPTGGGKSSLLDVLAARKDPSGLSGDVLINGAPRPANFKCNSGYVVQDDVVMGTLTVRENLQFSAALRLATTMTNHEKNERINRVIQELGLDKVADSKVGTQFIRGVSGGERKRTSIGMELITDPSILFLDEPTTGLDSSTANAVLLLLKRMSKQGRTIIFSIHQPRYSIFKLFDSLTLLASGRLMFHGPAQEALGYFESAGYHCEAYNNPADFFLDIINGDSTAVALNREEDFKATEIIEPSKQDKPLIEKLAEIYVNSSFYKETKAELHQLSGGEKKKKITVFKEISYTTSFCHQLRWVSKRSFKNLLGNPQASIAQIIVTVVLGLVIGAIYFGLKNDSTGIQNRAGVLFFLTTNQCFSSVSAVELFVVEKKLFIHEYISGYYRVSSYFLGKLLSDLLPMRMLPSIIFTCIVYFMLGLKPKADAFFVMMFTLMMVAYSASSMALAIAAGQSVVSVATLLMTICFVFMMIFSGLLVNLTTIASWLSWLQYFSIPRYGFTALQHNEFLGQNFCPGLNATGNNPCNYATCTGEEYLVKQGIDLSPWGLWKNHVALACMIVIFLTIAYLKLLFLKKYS
# This list was built around the results that the source calls inconclusive (neither active nor inactive); the mix of calls is not that of the screen. For some assays here: Potencies of inconclusive entries are doubtful fits and often do not repeat. The source made the active and inactive calls. How the source made its calls: active means hit-call score of the fitted dose curve at least 0.9, where 1 is the maximum; inconclusive means response in the unintended direction; inactive means score below 0.9.
# How the values were obtained:
# [1] = target: Glucocorticoid receptor (Homo sapiens) (UniProt P04150); test: ATG_GR_TRANS: Attagene TRANS-FACTORIAL HepG2 Assay for human Glucocorticoid Receptor (GR) (AID 2282978); conditions: HepG2 Attagene TRANS GR reporter, mRNA transcription;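 further: activators score as hits since higher reporter transcript over DMSO is fitted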
# Procedure, shortened: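 In this trans-factorial format, exogenous NR-GAL4 chimeric proteins in transfected HepG2 cells regulate GAL4-UAS reporter transcription. After 24 h treatment, reporter mRNA induction relative to DMSO is read by RT-PCR and capillary electrophoresis.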
# [2] = read-out: Cytochrome P450 2C19 (Homo sapiens) (UniProt P33261); test: CLD_CYP2C19_6hr: CellzDirect (CLD) Gene Expression Assay for xenobiotic metabolism (CYP2C19) at 6 hours (AID 2283678)
# Procedure, shortened: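 CYP2C19 transcript induction was quantified by quantitative nuclease protection assay with chemiluminescent read-out, 6 h after dosing. Cells were primary human hepatocytes from two donor preparations, given fresh dosing solutions daily in 0.2% DMSO vehicle. Activity was relative to DMSO.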
# [3] = read-out: Glyceraldehyde-3-phosphate dehydrogenase (Homo sapiens) (UniProt P04406); test: CLD_GAPDH_6hr: CellzDirect (CLD) Gene Expression Assay for Baseline Control (Glyceraldehyde 3-phosphate dehydrogenase) at 6 hours (AID 2283681);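 on outcome: active means increased signal relative to DMSO vehicle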
# Procedure, shortened: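 GAPDH baseline-control readout from qNPA (S1 nuclease digestion, probe hybridization, chemiluminescence) in lysates of cultured human hepatocytes harvested 6 h post-dosing. Chemicals tested at multiple concentrations versus 0.2% DMSO vehicle; microscopy-based cytotoxicity flagged yes/no.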
# [4] = read-out: HMG-CoA synthase (HMGCS2), HMGCS2 (gene 3158); test: CLD_HMGCS2_6hr: CellzDirect (CLD) Gene Expression Assay for HMG-CoA synthase (HMGCS2) at 6 hours (AID 2283682);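 further: actives raise HMGCS2 transcript above the 0.2% DMSO vehicle baseline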
# Procedure, shortened: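 HMGCS2 transcript induction read by quantitative nuclease protection with chemiluminescence, 6 h after dosing of primary human hepatocytes. Baseline was 0.2% DMSO vehicle; phase-contrast morphology gave a yes/no cytotoxicity annotation.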
# [5] = read-out: Glyceraldehyde-3-phosphate dehydrogenase (Homo sapiens) (UniProt P04406); test: CLD_GAPDH_24hr: CellzDirect (CLD) Gene Expression Assay for Baseline Control (Glyceraldehyde 3-phosphate dehydrogenase) at 24 hours (AID 2283692)
# Procedure, shortened: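 GAPDH baseline-control readout: qNPA chemiluminescent mRNA signal in human primary hepatocytes harvested 24 h after daily dosing, normalised to 0.2% DMSO with positive fitting direction; cytotoxicity annotated by phase-contrast morphology.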
# [6] = read-out: Cytochrome P450 2C19 (Homo sapiens) (UniProt P33261); test: CLD_CYP2C19_48hr: CellzDirect (CLD) Gene Expression Assay for xenobiotic metabolism (CYP2C19) at 48 hours (AID 2283700);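 on outcome: fitted upward so actives raise CYP2C19 mRNA above the 0.2% DMSO vehicle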
# Procedure, shortened: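 CYP2C19 mRNA induction read by chemiluminescent quantitative nuclease protection assay after 48 h, with fresh compound added daily for two days to cultured human liver hepatocytes. Activity fitted upward against 0.2% DMSO vehicle.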
# [7] = target: Bile acid receptor (Homo sapiens) (UniProt Q96RI1); test: ATG_FXR_TRANS: Attagene TRANS-FACTORIAL HepG2 Assay for Farnesoid X Receptor (FXR) (AID 2282979); conditions: HepG2 Attagene TRANS FXR-GAL4 reporter transcription;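 further: hits raise reporter mRNA above DMSO so AC50 marks FXR activation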
# Procedure, shortened: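 Transient transfection of HepG2 with multiplexed GAL4-UAS reporter units; exogenous FXR-GAL4 chimera. Dose 24 h → TriZol RNA → oligo(dT) RT → PCR, 6-FAM primer extension, HpaI cut → CE. Gain vs DMSO.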
# [8] = target: Nuclear receptor subfamily 1 group I member 2 (Homo sapiens) (UniProt O75469); test: ATG_PXR_TRANS: Attagene TRANS-FACTORIAL HepG2 Assay for human Pregnane X Receptor (PXR) (AID 2283008)
# Procedure, shortened: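 Trans-factorial format: exogenous NR-Gal4 fusion activity, not endogenous factor, in transfected human HepG2 liver cells. After 24 h dosing, RNA isolated, reverse-transcribed, amplified and resolved by capillary electrophoresis; induction scored versus DMSO.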
# [9] = target: rat Thyrotropin Releasing Hormone Receptor (TRH), Trhr (gene 25570) (UniProt Q01717); test: NVS_GPCR_rTRH: NovaScreen (NVS) G Protein-Coupled Receptor Assay for rat Thyrotropin Releasing Hormone Receptor (TRH) (AID 2283329);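 further: hit means lower bound tracer signal versus DMSO baseline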
# Procedure, shortened: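 Rat forebrain membrane prep, radioligand displacement, filter scintillation readout at 4 h. Single conc 25 uM, duplicate; actives retested as concentration series. DMSO = negative control/baseline.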
# [10] = CCTE_Deisenroth_AIME_384WELL_CTox_Active: Cytotoxicity Assessment (CTOX) in CCTE's 384-well Estrogen Receptor Transactivation Assay with AIME metabolic competence (metabolism positive), Deisenroth Lab (AID 2284037);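 further: chemicals first conditioned 2 h by alginate-bound induced rat liver S9 before cells; activity means signal loss indicating cell death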
# Procedure, shortened: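 VM7Luc4E2 breast cells received medium pre-incubated 2 h with chemical over alginate microspheres holding induced male Sprague Dawley rat liver S9; viability read 24 h later by protease-substrate fluorescence. Loss of signal, bidirectional fit, 0.002–200 uM.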
# [11] = CCTE_Deisenroth_AIME_384WELL_CTox_Inactive: Cytotoxicity Assessment (CTOX) in CCTE's 384-well Estrogen Receptor Transactivation Assay without AIME metabolic competence (metabolism negative), Deisenroth Lab (AID 2284039);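 further: cell viability via live-cell protease substrate cleaved to fluorescent probe; cells exposed 24 h to medium preincubated 2 h with alginate-water beads without S9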
# Procedure, shortened: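 Metabolism-negative arm: chemicals (10-point, 0.002 - 200 uM) preincubated 2 h with alginate-water lids, medium moved onto VM7Luc4E2 cells for 24 h. Fluorescent live-cell protease readout; bidirectional curve fit.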
# [12] = Tanguay_ZF_120hpf_PIG_legacy: (Legacy) Oregon State University Tanguay Lab 120 Hour Post-fertilization zebrafish Assay for Pigmentation Malformation (AID 2283650)
# Procedure, shortened: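 Endpoint is incidence of abnormal pigmentation at 120 hpf in dechorionated 5D zebrafish exposed singly from 6 hpf at 28C, DMSO vehicle at 0.64%. Embryos dying by 24 or 120 hpf are excluded from scoring.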
# [13] = ATG_Hpa5_TRANS: Attagene TRANS-FACTORIAL HepG2 Assay for human GAL4-Hpa5 Hepatocyte Transcription Factor Basal Promoter (AID 2282975); conditions: HepG2 Attagene GAL4-Hpa5 transcription reporter
# Procedure, shortened: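 Gain-of-signal versus DMSO is fitted for reporter mRNA quantified by RT-PCR and capillary electrophoresis after 24 h exposure. This endpoint is an internal background marker in transiently transfected HepG2 cells carrying GAL4-UAS reporter units.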
# [14] = CLD_ACTIN_6hr: CellzDirect (CLD) Gene Expression Assay for Baseline Control (Actin) at 6 hours (AID 2283676);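 further: active means increased actin mRNA relative to DMSO vehicle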
# Procedure, shortened: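 Baseline actin transcript level measured by qNPA (S1 nuclease protection, chemiluminescence) in human hepatocyte cultures 6 h after chemical exposure; 0.2% DMSO vehicle as reference, cytotoxicity noted from morphology.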
# [15] = read-out: Cytochrome P450 2C9 (Homo sapiens) (UniProt P11712); test: CLD_CYP2C9_24hr: CellzDirect (CLD) Gene Expression Assay for xenobiotic metabolism (CYP2C9) at 24 hours (AID 2283688);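 further: potency for induction meaning a rise in CYP2C9 mRNA over DMSO vehicle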
# Procedure, shortened: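 Induction of CYP2C9 mRNA was quantified by quantitative nuclease protection assay (chemiluminescence), gain of signal versus 0.2% DMSO vehicle, 24 h after dosing. Human primary hepatocytes (two donors) received fresh chemical daily at multiple concentrations; morphology-based cytotoxicity flagged yes/no.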
# [16] = read-out: organic anion transporter (SLCO1B1), SLCO1B1 (gene 10599); test: CLD_SLCO1B1_24hr: CellzDirect (CLD) Gene Expression Assay for organic anion transporter (SLCO1B1) at 24 hours (AID 2283690)
# Procedure, shortened: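 SLCO1B1 mRNA induction read at 24 h by quantitative nuclease protection assay (chemiluminescence), analyzed against DMSO baseline. Human hepatocyte cultures from separate donors received fresh dosing solutions daily; vehicle 0.2% DMSO; cytotoxicity flagged by phase-contrast morphology.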
# [17] = read-out: Cytochrome P450 2C19 (Homo sapiens) (UniProt P33261); test: CLD_CYP2C19_24hr: CellzDirect (CLD) Gene Expression Assay for xenobiotic metabolism (CYP2C19) at 24 hours (AID 2283687)
# Procedure, shortened: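 CYP2C19 mRNA was quantified by qNPA chemiluminescence after 24 h of daily dosing of cultured human primary hepatocytes from two donors; vehicle was 0.2% DMSO, and increases over DMSO baseline were fitted.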
# [18] = read-out: alkyl and aryl transferase (GSTA2), GSTA2 (gene 2939); test: CLD_GSTA2_48hr: CellzDirect (CLD) Gene Expression Assay for alkyl and aryl transferase (GSTA2) at 48 hours (AID 2283708);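 further: active means mRNA induction above DMSO vehicle baseline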
# Procedure, shortened: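 GSTA2 mRNA quantified by qNPA chemiluminescence in human primary hepatocyte lysates after 48 h of daily fresh chemical dosing. Increases fitted against 0.2% DMSO vehicle baseline; cytotoxicity from morphology annotated yes/no.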
# [19] = read-out: ABC Transporter (ABCB11), ABCB11 (gene 8647); test: CLD_ABCB11_48hr: CellzDirect (CLD) Gene Expression Assay for ABC Transporter (ABCB11) at 48 hours (AID 2283697)
# Procedure, shortened: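 Induction of ABCB11 mRNA relative to 0.2% DMSO, measured at 48 h by qNPA chemiluminescence. Cultured human hepatocytes (two donors) received fresh dosing solutions at several concentrations on two consecutive days.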
# [20] = read-out: Broad substrate specificity ATP-binding cassette transporter ABCG2 (Homo sapiens) (UniProt Q9UNQ0); test: CLD_ABCG2_48hr: CellzDirect (CLD) Gene Expression Assay for ABC Transporter (ABCG2) at 48 hours (AID 2283704)
# Procedure, shortened: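 ABCG2 transcript measured at 48 h by quantitative nuclease protection (chemiluminescent) and fitted for increase relative to 0.2% DMSO. Hepatocyte cultures from separate donors got fresh compound daily over two days; morphology annotated cytotoxicity.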
compound,measurement,setting,value
CCOP(=S)(OCC)OC(Cl)C(Cl)(Cl)Cl (configuration not stated),AC50,[1],inconclusive: 50 µM
same,AC50,[2],inconclusive: 20 µM
same,outcome,[3],inactive
same,outcome,[4],inactive
same,outcome,[5],inactive
same,AC50,[6],inconclusive: 20 µM
CC1(C)COP(Oc2ccccc2)OC1,outcome,[7],inactive
same,AC50,[8],inconclusive: 100 µM
[N-]=[N+]=CC(=O)OC[C@H](N)C(=O)O,AC50,[8],inconclusive: 100 µM
O=C1C(Cl)=C(Cl)C(=O)c2ccccc21,AC50,[9],inconclusive: 25 µM
same,AC50,[10],active: 163 µM
same,AC50,[11],active: 189 µM
c1ccc(N=Nc2ccccc2)cc1,AC50,[12],inconclusive: 96.4 µM
same,outcome,[10],inactive
CC(C)[C@H](C(=O)OC(C#N)c1cccc(Oc2ccccc2)c1)c1ccc(OC(F)F)cc1 (some centres not stated),outcome,[1],inactive
same,AC50,[7],inconclusive: 100 µM
CC1=NNC(=O)N(/N=C/c2cccnc2)C1,AC50,[13],inconclusive: 574 nM
same,AC50,[12],inconclusive: 1.22 µM
same,outcome,[14],inactive
same,outcome,[2],inactive
same,AC50,[15],inconclusive: 20 µM
same,AC50,[16],inconclusive: 0.642 µM
same,outcome,[6],inactive
same,outcome,[10],inactive
N#Cc1c(Cl)cccc1Cl,AC50,[9],inconclusive: 25 µM
same,outcome,[14],inactive
same,AC50,[4],inconclusive: 17.8 nM
same,AC50,[17],inconclusive: 20 µM
same,outcome,[16],inactive
same,outcome,[5],inactive
same,outcome,[18],inactive
Cc1cc(N=Nc2ccccc2C)ccc1N,AC50,[8],active: 20.7 µM
same,AC50,[10],active: 107 µM
same,AC50,[11],active: 103 µM
CCCCOP(=O)(CCCC)OCCCC,AC50,[8],active: 8.52 µM
N#CSCSC#N,AC50,[7],inconclusive: 2.51 µM
same,AC50,[9],inconclusive: 0.929 µM
same,AC50,[12],inconclusive: 0.621 µM
same,AC50,[2],inconclusive: 20 µM
same,outcome,[4],inactive
same,AC50,[17],inconclusive: 3.91 µM
same,AC50,[15],inconclusive: 0.571 µM
same,AC50,[16],inconclusive: 1.93 µM
same,outcome,[19],inactive
same,AC50,[6],inconclusive: 11.2 µM
same,outcome,[20],inactive
COC(=O)Nc1nc2ccccc2[nH]1,AC50,[1],inconclusive: 100 µM
same,outcome,[10],inactive
same,AC50,[11],inconclusive: 0.0002 µM
CCCCOC(=O)CCC(=O)OCCCC,AC50,[8],inconclusive: 177 µM

# Two entries drawn at random from those above:
compound,measurement,setting,value
N#CSCSC#N,AC50,[17],inconclusive: 3.91 µM
COC(=O)Nc1nc2ccccc2[nH]1,AC50,[1],inconclusive: 100 µM
